Assay results from patent US20210309745A1 (TAYU HUAXIA BIOTECH MEDICAL GROUP, published 2021).
Results are given in words; binding and its absence hold for the method and conditions named. Some entries that bind do so weakly or less than the wild type.

By UniProt entry, the sequences of proteins in these tests, tags left out. Where a name states a change or a piece, a line headed by the entry shows the natural chain unless it says otherwise.
UniProt Q9NZQ7: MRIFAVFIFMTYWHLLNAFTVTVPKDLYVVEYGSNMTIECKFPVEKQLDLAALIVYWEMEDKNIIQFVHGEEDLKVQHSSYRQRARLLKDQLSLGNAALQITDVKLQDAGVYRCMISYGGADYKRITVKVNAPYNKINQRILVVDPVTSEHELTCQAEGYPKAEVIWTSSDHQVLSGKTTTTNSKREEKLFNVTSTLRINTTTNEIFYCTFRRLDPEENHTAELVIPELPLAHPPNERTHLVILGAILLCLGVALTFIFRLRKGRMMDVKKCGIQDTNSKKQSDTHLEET

Tests used:
[1] = molecular target: human PD-L1 on transfected CHO cells (CHO/hPD-L1) (human) (UniProt Q9NZQ7); assay: FACS on hPD-L1 (cells not named)
[2] = molecular target: human PD-L1 on transfected CHO cells (CHO/hPD-L1) (human) (UniProt Q9NZQ7); assay: FACS on hPD-L1; the cells are not named in the text or on the sheet
[3] = molecular target: hPD-L1 (antigen of the Fortebio Octet assay) (human) (UniProt Q9NZQ7); assay: Fortebio Octet sensorgrams, concentrations not given

Measured: binding

B1: anti-PD-L1 IgG1 (parental antibody of Example 3) (antibody, V domains shown)
VH: EVQLQQSGAELVKPGASVKLSCTASGFNIKDTYMYWVKQRPEQGLECIGRIDPANDNTKYDPKFQGKATITADTSSNTAYVQLASLTSEDTAVYYCARAKNLLNYFDYWGQGTTLTVSS
VL: DIQMTQSPSSLSASLGERVTLSCRASQEISGYLSWLQQKPDGTIKRLIYATSTLDSGVPKRFSGSRSGSDYSLTISSLESEDFADYYCLQYAIYPLTFGAGTKLELKR
notes: IgG1; also called parental control antibody
binds: all assays above
